PubChem BioAssay AID743121 – NCATS, 2013
Shown is a random part of about 26,000 reagents tested. 167 of them (0.63%) count as active. 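Calls are per gene from RSA p-values that are not deposited; an individual active-marked siRNA can sensitise only weakly.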 Entries without a mark were called inactive. The numbers tell different reagents against one gene apart.

Aim: 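Partners whose loss is lethal together with topoisomerase I blockade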 (primary screen)
Cells: MDA-MB-231 cells, a human breast cancer line
Reagents: single siRNA against human genes, 20 nM siRNA (0.8 pmol per well)
Duration: 120 h (drug added 48 h after transfection, read 72 h later)
Treatment: camptothecin 20 nM (about EC30) for 72 h; vehicle 0.1% DMSO in parallel plates
Detection: 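Cell viability by ATP luminescence (CellTiter-Glo) as % of non-targeting siRNA wells, and the log2 ratio of viability without drug over viability with camptothecin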
Reading the numbers: log2 vehicle/camptothecin viability: higher = stronger sensitisation to camptothecin; viability with camptothecin and viability without drug: higher = more viable cells
Active means: 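Active genes have an RSA gene-level p-value below 0.001, computed from the ratios of their separate siRNAs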

Target gene	reagent	log2 vehicle/camptothecin viability	viability with camptothecin (% of control)	viability without drug (% of control)
TNIK (TRAF2 and NCK interacting kinase)	1	-0.0437	97.2	94.3
TNIK (TRAF2 and NCK interacting kinase)	2	0.124	29.8	32.4
TNIK (TRAF2 and NCK interacting kinase)	3	-0.712	73.8	45.1
TNIK (TRAF2 and NCK interacting kinase)	4	-0.193	90.5	79.2
RAB11B (RAB11B, member RAS oncogene family)	1	-0.345	73.8	58
RAB11B (RAB11B, member RAS oncogene family)	2	-0.0184	50.9	50.3
RAB11B (RAB11B, member RAS oncogene family)	3	-0.168	66.8	59.4
VEGFD (vascular endothelial growth factor D)	1	-0.0317	99.6	97.4
VEGFD (vascular endothelial growth factor D)	2	-0.424	71.6	53.3
VEGFD (vascular endothelial growth factor D)	3	-0.0225	67.6	66.5
VEGFD (vascular endothelial growth factor D)	4	0.0914	29.4	31.3
PLCH1 (phospholipase C eta 1)	1	-0.263	63.9	53.2
PLCH1 (phospholipase C eta 1)	2	-0.227	139	119
PLCH1 (phospholipase C eta 1)	3	0.359	85.8	110
PLCH1 (phospholipase C eta 1)	4	-0.195	101	88.1
NISCH (nischarin)	1	-0.292	98.1	80.2
NISCH (nischarin)	2	0.291	72.1	88.2
NISCH (nischarin)	3	-0.155	58.7	52.7
NISCH (nischarin)	4	0.135	86.5	95
RRM1 (ribonucleotide reductase catalytic subunit M1)	1	-0.399	67.4	51.1
RRM1 (ribonucleotide reductase catalytic subunit M1)	2	-0.594	12.5	8.26
RRM1 (ribonucleotide reductase catalytic subunit M1)	3	0.0815	4.59	4.86
RRM1 (ribonucleotide reductase catalytic subunit M1)	4	-0.0677	9.59	9.15
BAG2 (BAG cochaperone 2)	1	-0.0426	97.9	95.1
BAG2 (BAG cochaperone 2)	2	0.0451	104	108
BAG2 (BAG cochaperone 2)	3	-0.376	41.9	32.3
BAG2 (BAG cochaperone 2)	4	-0.108	106	98.6
MOS (MOS proto-oncogene, serine/threonine kinase)	1	0.769	42.9	73
MOS (MOS proto-oncogene, serine/threonine kinase)	2	-0.105	65.4	60.8
MOS (MOS proto-oncogene, serine/threonine kinase)	3	-0.297	92.1	75
MOS (MOS proto-oncogene, serine/threonine kinase)	4	0.321	82.9	104
INHBC (inhibin subunit beta C)	1	-0.338	89.8	71
INHBC (inhibin subunit beta C)	2	-0.385	90.7	69.5
INHBC (inhibin subunit beta C)	3	-0.538	81.5	56.2
INHBC (inhibin subunit beta C)	4	0.363	60.8	78.1
NPM1 (nucleophosmin 1)	1	0.0375	87.5	89.8
NPM1 (nucleophosmin 1)	2	-0.271	57.7	47.9
NPM1 (nucleophosmin 1)	3	-0.48	105	75.3
NPM1 (nucleophosmin 1)	4	-0.236	132	112
NPM1 (nucleophosmin 1)	5	-0.389	93.2	71.2
NPM1 (nucleophosmin 1)	6	-0.146	57.2	51.7
CDH5 (cadherin 5)	1	0.0059	39.6	39.8
CDH5 (cadherin 5)	2	-0.187	124	108
CDH5 (cadherin 5)	3	-0.103	115	107
CDH5 (cadherin 5)	4	0.0695	88.2	92.6
EWSR1 (EWS RNA binding protein 1)	1	-0.27	55	45.6
EWSR1 (EWS RNA binding protein 1)	2	0.465	17.5	24.1
EWSR1 (EWS RNA binding protein 1)	3	-0.33	61.9	49.3
EWSR1 (EWS RNA binding protein 1)	4	0.792	28.2	48.9
CYP11B2 (cytochrome P450 family 11 subfamily B member 2)	1	-0.65	103	65.8
CYP11B2 (cytochrome P450 family 11 subfamily B member 2)	2	-0.0234	77.3	76
CYP11B2 (cytochrome P450 family 11 subfamily B member 2)	3	-0.229	89.6	76.4
CYP11B2 (cytochrome P450 family 11 subfamily B member 2)	4	-0.334	94.4	74.9
RASSF3 (Ras association domain family member 3)	1	-0.0796	46.8	44.3
RASSF3 (Ras association domain family member 3)	2	0.028	63.5	64.7
RASSF3 (Ras association domain family member 3)	3	-0.116	76.8	70.9
RASSF3 (Ras association domain family member 3)	4	-0.176	72.5	64.2
LRRC2 (leucine rich repeat containing 2)	1	-0.309	85.5	69.1
LRRC2 (leucine rich repeat containing 2)	2	0.172	75.7	85.3
LRRC2 (leucine rich repeat containing 2)	3	-0.344	54	42.6
LRRC2 (leucine rich repeat containing 2)	4	-0.232	60	51
OGFR (opioid growth factor receptor)	1	-0.276	75.5	62.3
OGFR (opioid growth factor receptor)	2	-0.53	95.9	66.4
OGFR (opioid growth factor receptor)	3	-0.0442	96.7	93.8
OGFR (opioid growth factor receptor)	4	-0.082	92	86.9
OGFR (opioid growth factor receptor)	5	-0.436	80.4	59.4
PTPN13 (protein tyrosine phosphatase non-receptor type 13)	1	-0.232	91	77.4
PTPN13 (protein tyrosine phosphatase non-receptor type 13)	2	0.0189	67.3	68.1
PTPN13 (protein tyrosine phosphatase non-receptor type 13)	3	-0.103	102	95.3
PTPN13 (protein tyrosine phosphatase non-receptor type 13)	4	-0.306	112	91

Individual results from the list.
Result for CYP11B2 (cytochrome P450 family 11 subfamily B member 2) #3 in “log2 vehicle/camptothecin viability”: -0.229
Value of VEGFD (vascular endothelial growth factor D) #4 in “viability without drug (% of control)”: 31.3
Value for CDH5 (cadherin 5) #3 in “viability without drug (% of control)”: 107
Value for OGFR (opioid growth factor receptor) #3 under “viability with camptothecin (% of control)”: 96.7
CYP11B2 (cytochrome P450 family 11 subfamily B member 2) #2, log2 vehicle/camptothecin viability → -0.0234
Result of RASSF3 (Ras association domain family member 3) #1 under “log2 vehicle/camptothecin viability”: -0.0796
